The target of the assay is NKX2-5 with N-terminal SH-tag (human) (UniProt P52952). The experiment in a line: AlphaScreen or HTRF; whole cell lysates of COS-1 cells expressing GATA4-V5 (1,000 cells per well) and NKX2-5-SH (2,500 cells per well) combined in Alpha Screen sample buffer (50 mM Tris-HCl pH 7.4, NaCl, 0.1% BSA) with DMSO or compound 1 dilution series, 60 min at 4 °C; then V5-acceptor beads and Strep-Tactin donor beads, 20 µg/mL each, 60 min at room temperature. For orientation: Bead proximity is the source of the signal in Alpha formats.

The chains behind the UniProt entries cited, without tags or fusion partners.
UniProt P52952: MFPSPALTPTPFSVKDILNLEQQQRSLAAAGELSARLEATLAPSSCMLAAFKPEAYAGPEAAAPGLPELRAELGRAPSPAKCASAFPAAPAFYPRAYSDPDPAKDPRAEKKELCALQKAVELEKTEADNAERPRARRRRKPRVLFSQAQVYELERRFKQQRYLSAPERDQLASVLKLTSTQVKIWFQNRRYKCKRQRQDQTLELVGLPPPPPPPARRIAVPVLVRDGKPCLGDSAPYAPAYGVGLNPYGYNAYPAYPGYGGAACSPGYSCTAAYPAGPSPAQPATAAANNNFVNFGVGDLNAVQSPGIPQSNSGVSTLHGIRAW
UniProt P43694: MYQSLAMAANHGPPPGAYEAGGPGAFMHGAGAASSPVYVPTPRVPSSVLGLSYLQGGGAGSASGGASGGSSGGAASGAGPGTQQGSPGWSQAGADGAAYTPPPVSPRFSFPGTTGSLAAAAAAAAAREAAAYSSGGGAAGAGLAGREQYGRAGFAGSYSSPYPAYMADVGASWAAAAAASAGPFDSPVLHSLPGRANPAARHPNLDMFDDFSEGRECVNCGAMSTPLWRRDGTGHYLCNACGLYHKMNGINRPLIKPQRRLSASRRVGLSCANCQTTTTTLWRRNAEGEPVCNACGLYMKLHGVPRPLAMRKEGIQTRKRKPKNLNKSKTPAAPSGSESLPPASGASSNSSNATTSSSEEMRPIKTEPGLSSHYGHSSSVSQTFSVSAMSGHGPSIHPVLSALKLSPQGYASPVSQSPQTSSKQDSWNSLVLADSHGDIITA

Results are given in words; binding and its absence hold for the method and conditions named. Some results given as binding are weak or reduced against the parent protein; the word gives no strength.

As to “GATA4 protein with C-terminal V5-tag (from UniProt P43694 1-442)”, the binding entry was “binds”.

Source of the values: publication PMC11026519.
